Measured values from article doi:10.1101/2025.11.03.686242.
Results are given in words; binding and its absence hold for the method and conditions named. In cells and extracts the contact can be indirect. Sequences can lack the tags named with a protein.

Biological target: T1, ADAMTSL4 fused with EGFP (human) (UniProt Q6UY14)
T1 sequence: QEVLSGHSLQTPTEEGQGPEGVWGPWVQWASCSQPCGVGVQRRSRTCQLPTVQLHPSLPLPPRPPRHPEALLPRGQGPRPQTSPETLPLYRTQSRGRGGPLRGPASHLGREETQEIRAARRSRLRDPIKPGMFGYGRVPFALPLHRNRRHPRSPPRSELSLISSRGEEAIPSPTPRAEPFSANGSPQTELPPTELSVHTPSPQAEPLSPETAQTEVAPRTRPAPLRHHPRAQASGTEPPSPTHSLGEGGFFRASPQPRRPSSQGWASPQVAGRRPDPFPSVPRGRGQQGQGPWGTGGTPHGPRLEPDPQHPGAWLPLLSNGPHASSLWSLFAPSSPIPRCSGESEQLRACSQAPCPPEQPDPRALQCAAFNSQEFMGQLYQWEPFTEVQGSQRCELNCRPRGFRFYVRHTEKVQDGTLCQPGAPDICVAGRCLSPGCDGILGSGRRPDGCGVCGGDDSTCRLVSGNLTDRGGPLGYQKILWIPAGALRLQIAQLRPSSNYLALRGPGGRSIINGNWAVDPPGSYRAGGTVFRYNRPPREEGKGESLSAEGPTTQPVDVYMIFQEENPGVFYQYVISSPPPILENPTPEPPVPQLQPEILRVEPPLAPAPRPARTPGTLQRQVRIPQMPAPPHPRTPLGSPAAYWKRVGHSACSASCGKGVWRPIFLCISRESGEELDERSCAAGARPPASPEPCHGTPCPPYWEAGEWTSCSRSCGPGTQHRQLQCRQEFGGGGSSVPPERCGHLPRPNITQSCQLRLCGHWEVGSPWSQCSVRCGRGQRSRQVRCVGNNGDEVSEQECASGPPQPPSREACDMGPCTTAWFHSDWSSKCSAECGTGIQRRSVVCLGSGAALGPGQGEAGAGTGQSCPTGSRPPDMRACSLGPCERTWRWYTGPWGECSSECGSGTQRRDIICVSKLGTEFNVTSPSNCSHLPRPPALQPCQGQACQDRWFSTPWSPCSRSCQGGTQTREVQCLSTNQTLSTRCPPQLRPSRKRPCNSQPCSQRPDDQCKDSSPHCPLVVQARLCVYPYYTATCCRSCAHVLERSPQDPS
Test: co-IP

binding: no binding
Substance: COL8A1 fused with mCherry (from UniProt P27658 28-744)
